The list shows a part of the results.

Sequences of proteins named here, by UniProt entry; tags and fusion partners are left off. A change or cut given only in a name is not applied to a line headed by its entry.
UniProt Q9Y294, whole entry, looked up: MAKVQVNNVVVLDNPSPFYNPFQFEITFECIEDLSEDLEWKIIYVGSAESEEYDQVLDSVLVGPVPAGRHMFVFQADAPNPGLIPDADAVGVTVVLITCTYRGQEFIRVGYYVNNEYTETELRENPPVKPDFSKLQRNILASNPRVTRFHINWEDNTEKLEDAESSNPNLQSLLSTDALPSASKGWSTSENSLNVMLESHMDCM
UniProt Q9NVP2, whole entry, looked up: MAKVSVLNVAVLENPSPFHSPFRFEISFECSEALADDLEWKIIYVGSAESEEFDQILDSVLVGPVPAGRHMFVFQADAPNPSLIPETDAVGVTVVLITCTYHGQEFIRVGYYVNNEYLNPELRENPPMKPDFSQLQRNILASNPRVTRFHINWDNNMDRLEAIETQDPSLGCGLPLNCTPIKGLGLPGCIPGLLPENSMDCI
UniProt Q93084: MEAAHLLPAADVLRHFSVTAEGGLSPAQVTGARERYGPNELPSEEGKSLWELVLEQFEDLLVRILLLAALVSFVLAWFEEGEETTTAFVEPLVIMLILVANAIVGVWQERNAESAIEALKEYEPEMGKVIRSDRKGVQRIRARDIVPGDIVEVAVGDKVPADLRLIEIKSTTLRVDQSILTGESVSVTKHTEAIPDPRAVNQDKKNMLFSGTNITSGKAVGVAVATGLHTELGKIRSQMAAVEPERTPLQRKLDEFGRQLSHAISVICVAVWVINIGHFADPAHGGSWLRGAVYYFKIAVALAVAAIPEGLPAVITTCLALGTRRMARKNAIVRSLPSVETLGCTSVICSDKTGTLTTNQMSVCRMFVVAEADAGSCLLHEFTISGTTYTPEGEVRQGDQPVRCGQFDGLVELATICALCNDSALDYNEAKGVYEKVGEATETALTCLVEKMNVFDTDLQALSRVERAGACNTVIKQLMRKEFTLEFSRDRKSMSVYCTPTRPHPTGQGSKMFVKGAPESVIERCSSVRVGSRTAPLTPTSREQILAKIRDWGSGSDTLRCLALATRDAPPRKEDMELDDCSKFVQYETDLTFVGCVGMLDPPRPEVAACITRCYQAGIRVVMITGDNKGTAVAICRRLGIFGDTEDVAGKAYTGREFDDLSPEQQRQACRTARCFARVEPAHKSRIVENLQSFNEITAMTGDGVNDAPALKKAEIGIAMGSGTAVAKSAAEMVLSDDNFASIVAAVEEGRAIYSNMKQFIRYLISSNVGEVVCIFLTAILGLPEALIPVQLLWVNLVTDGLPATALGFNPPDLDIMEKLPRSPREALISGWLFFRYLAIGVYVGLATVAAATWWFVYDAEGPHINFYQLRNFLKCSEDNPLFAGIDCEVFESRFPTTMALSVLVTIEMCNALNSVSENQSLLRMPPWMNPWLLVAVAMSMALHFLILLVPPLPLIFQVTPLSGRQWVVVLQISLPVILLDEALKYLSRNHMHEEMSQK
UniProt Q9H1I8: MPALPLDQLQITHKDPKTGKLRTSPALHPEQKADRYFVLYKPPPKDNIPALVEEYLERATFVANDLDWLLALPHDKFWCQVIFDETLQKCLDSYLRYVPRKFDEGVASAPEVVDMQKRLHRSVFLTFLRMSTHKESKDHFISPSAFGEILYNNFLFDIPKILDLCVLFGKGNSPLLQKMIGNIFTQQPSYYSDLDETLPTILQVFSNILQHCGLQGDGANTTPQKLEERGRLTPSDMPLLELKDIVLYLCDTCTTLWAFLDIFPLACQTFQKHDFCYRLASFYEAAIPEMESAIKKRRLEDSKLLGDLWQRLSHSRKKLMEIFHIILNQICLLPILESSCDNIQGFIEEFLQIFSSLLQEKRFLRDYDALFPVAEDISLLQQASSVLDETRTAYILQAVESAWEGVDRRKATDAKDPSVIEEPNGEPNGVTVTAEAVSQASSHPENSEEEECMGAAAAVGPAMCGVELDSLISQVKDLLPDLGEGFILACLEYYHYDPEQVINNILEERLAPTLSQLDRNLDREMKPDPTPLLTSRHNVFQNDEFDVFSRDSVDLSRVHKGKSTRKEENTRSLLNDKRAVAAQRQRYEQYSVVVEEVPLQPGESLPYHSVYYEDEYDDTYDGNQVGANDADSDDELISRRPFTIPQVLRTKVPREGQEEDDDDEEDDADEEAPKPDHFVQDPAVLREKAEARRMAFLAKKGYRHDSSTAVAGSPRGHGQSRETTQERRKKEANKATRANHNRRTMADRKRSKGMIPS
UniProt P00966: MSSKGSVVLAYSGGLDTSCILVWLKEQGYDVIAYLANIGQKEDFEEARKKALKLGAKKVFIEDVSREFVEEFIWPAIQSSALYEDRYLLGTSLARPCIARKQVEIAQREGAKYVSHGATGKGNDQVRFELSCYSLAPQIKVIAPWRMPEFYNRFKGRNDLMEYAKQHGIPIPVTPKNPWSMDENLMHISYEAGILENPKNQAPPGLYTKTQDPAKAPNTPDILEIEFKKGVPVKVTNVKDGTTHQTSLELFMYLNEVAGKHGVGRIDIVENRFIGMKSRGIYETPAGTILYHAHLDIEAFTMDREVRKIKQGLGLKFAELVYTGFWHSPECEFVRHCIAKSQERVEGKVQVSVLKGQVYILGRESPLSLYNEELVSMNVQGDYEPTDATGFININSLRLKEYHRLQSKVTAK
UniProt P38606, whole entry, looked up: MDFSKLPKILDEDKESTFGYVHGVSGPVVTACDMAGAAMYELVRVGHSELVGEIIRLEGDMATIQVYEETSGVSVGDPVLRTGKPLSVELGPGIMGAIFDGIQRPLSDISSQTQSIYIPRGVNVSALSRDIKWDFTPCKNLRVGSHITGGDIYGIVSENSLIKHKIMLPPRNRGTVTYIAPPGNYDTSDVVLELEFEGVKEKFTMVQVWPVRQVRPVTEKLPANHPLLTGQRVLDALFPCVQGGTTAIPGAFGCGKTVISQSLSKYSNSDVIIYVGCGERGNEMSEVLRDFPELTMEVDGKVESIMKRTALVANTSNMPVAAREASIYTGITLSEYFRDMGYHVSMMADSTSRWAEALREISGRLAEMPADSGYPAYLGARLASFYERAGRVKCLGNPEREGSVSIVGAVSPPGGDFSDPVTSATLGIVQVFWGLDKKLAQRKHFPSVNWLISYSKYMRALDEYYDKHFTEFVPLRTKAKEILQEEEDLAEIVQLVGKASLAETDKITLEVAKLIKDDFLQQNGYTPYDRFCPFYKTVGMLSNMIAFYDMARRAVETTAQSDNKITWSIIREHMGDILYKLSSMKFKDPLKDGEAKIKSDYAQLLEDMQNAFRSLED
UniProt P56378: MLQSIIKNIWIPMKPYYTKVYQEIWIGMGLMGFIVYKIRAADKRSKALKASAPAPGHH
UniProt Q9UBB4: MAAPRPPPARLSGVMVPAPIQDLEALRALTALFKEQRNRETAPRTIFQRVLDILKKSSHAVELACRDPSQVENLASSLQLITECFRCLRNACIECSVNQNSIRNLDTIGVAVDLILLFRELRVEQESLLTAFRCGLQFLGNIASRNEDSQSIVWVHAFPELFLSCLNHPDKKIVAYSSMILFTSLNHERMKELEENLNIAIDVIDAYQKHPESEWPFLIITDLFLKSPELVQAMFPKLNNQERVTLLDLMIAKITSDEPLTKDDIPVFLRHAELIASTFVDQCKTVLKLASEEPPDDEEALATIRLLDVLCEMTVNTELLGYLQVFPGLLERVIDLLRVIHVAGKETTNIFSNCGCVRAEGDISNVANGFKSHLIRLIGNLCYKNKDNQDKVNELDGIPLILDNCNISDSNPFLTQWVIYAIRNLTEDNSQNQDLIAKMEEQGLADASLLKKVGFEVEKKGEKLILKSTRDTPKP
UniProt O00244: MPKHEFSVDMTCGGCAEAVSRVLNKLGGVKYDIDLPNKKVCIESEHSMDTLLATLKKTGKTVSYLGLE
UniProt Q16864, whole entry, looked up: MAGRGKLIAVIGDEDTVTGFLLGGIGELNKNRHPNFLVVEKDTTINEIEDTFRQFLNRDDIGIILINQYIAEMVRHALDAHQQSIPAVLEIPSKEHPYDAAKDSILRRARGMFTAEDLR
UniProt P36543, whole entry, looked up: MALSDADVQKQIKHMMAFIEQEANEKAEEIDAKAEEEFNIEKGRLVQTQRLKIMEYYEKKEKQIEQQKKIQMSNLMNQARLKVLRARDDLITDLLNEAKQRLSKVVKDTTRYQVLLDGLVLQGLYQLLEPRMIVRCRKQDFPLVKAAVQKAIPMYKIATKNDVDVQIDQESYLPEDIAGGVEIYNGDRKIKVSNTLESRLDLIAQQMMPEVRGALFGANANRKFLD
UniProt O43681: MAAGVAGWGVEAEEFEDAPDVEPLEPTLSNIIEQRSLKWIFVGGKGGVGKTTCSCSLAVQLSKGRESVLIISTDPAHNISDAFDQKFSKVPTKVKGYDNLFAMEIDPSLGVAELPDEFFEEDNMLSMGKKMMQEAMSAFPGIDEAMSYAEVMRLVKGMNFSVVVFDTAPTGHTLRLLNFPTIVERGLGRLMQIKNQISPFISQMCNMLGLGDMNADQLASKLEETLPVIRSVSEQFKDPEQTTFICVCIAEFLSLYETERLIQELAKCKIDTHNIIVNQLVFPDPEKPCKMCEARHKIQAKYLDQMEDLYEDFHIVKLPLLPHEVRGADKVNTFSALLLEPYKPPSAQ
UniProt Q9Y2G3: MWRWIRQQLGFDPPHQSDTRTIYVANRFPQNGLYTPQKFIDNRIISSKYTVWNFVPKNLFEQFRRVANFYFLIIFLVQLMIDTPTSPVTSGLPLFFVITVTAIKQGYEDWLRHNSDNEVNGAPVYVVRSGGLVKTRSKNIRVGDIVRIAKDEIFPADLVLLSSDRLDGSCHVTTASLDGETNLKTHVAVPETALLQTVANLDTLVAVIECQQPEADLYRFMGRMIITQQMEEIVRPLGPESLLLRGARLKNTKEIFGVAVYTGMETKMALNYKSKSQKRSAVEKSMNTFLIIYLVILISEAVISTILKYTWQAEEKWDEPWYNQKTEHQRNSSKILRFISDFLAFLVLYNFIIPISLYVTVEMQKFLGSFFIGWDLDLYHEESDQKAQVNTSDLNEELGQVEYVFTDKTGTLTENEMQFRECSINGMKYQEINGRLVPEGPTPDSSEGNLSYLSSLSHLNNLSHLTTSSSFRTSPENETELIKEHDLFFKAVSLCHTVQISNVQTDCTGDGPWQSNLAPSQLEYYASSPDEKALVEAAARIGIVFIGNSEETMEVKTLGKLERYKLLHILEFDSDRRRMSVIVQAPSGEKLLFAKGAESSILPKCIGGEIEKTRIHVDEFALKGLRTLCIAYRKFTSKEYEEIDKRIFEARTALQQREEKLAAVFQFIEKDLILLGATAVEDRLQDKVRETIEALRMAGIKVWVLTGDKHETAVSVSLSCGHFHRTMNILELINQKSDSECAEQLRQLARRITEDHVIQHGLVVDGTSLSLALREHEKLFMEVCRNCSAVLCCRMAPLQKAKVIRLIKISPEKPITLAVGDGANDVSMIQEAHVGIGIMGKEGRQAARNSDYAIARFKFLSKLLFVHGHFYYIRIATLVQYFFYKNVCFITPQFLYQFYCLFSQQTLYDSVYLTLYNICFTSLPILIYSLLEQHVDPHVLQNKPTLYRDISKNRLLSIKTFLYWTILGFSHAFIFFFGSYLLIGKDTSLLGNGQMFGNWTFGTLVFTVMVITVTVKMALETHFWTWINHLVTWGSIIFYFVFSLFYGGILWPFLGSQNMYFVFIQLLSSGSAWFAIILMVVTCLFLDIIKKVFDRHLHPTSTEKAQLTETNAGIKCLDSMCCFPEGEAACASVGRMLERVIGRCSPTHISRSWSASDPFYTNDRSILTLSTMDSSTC
UniProt Q9Y487, whole entry, looked up: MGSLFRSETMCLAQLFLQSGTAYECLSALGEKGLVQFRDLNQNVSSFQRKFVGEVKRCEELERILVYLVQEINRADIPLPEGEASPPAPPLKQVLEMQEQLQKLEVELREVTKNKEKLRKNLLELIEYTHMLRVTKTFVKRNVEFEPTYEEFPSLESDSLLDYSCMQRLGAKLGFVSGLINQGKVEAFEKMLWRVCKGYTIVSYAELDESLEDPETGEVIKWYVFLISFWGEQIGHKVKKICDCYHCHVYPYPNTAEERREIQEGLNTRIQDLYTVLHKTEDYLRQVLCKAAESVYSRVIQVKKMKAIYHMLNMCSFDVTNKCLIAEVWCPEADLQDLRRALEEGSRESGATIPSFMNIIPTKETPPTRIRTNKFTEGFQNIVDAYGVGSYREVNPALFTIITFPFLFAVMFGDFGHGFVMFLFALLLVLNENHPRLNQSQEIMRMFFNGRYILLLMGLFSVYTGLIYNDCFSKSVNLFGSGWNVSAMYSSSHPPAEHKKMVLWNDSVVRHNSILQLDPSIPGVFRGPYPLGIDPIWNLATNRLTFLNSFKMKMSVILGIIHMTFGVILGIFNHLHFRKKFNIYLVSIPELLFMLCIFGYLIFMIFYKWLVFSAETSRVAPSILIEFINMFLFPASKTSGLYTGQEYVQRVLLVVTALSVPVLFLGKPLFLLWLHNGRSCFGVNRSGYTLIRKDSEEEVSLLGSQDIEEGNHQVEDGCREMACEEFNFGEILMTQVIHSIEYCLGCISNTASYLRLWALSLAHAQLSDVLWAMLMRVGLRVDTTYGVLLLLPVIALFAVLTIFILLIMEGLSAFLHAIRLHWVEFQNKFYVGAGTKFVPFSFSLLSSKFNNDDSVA

Compound in this assay: NC1(c2ccc(-c3nc4ccn5c(=O)[nH]nc5c4cc3-c3ccccc3)cc2)CCC1
The experiment in a line: log2 fold change, soluble protein after heating vs DMSO (PISA); higher = thermal stabilisation; K562 lysate, 10 uM; active = over 0.2 and 3.5 SD of the protein, either way, in both replicates (recomputed). In outline: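 Dounce homogenisation of K562 pellets in PBS pH 7.4 with 1 mM MgCl2 produced a crude extract, used at 1 mg/mL protein. Exposure to 10 μM compound lasted 30 min, and aliquots were then heated for 3 min across 48°C-58°C, pooled and brought to 0.5% NP-40 at 4°C. The supernatant after 21,000xg for 90 min was quantified by TMTpro 16plex LC-MS/MS with channel sums equalised. Duplicate values are given as log-two fold change in thermal stability relative to solvent controls.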
ASF1A (UniProt Q9Y294): the log2 fold change is inactive: -0.003.

Turning to ATP2B1 isoform 1 (UniProt P20020), the log2 fold change was inactive: -0.013.

Take ASF1B (UniProt Q9NVP2): the log2 fold change is inactive: 0.002.

For the target ATP2A3 isoform 2 (UniProt Q93084), the log2 fold change is inactive: 0.024.

For the target ATL2 (UniProt Q8NHH9), the log2 fold change was inactive: 0.042.

As for ASCC2 (UniProt Q9H1I8), the log2 fold change was inactive: -0.023.

Take ASNS (UniProt P08243): the log2 fold change is inactive: -0.028.

Take ATP9B (UniProt O43861): the log2 fold change was inactive: 0.064.

Consider ASS1 (UniProt P00966), for which the log2 fold change is inactive: 0.015.

With ATP5F1D (UniProt P30049), the log2 fold change is inactive: 0.034.

ATG4B (UniProt Q9Y4P1): the log2 fold change is inactive: 0.005.

Consider ATG2A isoform 3 (UniProt Q2TAZ0), for which the log2 fold change is inactive: -0.061.

With ATP5IF1 (UniProt Q9UII2), the log2 fold change is inactive: 0.002.

Turning to ATP6V1B1 (UniProt P15313), the log2 fold change was inactive: 0.008.

Consider ATP6V1A (UniProt P38606), for which the log2 fold change is inactive: 0.026.

ATE1 isoform 2 (UniProt O95260): the log2 fold change was inactive: 0.014.

With ATP5MF-PTCD1 (UniProt G3V325), the log2 fold change is inactive: 0.037.

In the case of ATP5MPL (UniProt P56378), the log2 fold change is inactive: -0.007.

Turning to ATP5PB (UniProt P24539), the log2 fold change is inactive: 0.02.

On to AUP1 (UniProt Q9Y679), for which the log2 fold change was inactive: 0.

Regarding ATXN10 (UniProt Q9UBB4), the log2 fold change was inactive: 0.01.

As to ASH2L (UniProt Q9UBL3), the log2 fold change was inactive: 0.006.

Regarding ATOX1 (UniProt O00244), the log2 fold change is inactive: 0.019.

As for ATP13A3 (UniProt Q9H7F0), the log2 fold change was inactive: 0.024.

For ATP6V1F isoform 2 (UniProt Q16864), the log2 fold change was inactive: 0.004.

ATP6V1E1 (UniProt P36543): the log2 fold change was inactive: -0.012.

For ASNA1 (UniProt O43681), the log2 fold change is inactive: -0.01.

Turning to ATP11B (UniProt Q9Y2G3), the log2 fold change was inactive: 0.009.

With ATR (UniProt Q13535), the log2 fold change is inactive: -0.085.

Consider ATF1 (UniProt P18846), for which the log2 fold change was inactive: -0.06.

Take ATP23 (UniProt Q9Y6H3): the log2 fold change was inactive: 0.016.

For the target ATP6V0A2 (UniProt Q9Y487), the log2 fold change is inactive: -0.001.

As for ASB6 (UniProt Q9NWX5), the log2 fold change is inactive: 0.08.

The values are drawn from the supplement of paper PMC10849652.
